Record: PubChem BioAssay AID504804 (Drosophila RNAi Screening Center, 2011)
In all, the deposit lists about 19,000 reagents; below is an unselected part of those with a known target gene and a result. Over the whole deposit, 47 (0.25%) got an active call. 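Signals are raw, not normalised; exact z-scores behind calls not deposited; actives needed confirmation, so some wells reaching 2 SD are inactive.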 Reagents against one gene are numbered here.

Aim: 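Fly genes whose loss lessens doxorubicin-driven cell death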 (primary screen)
Cell system: Drosophila Kc cells
Knock-down reagent: long dsRNA against Drosophila genes, 0.5 µg dsRNA per well
Timing: 96 h (48 h knock-down, then 48 h drug)
Treatment: doxorubicin 5 µg/ml for 48 h, added 48 h after dsRNA
Measurement: 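Luminescent ATP counts per replicate, not normalised, reflecting viable cells after 48 h dsRNA knock-down followed by 48 h of 5 µg/ml doxorubicin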
Reading the numbers: raw ATP luminescence: higher = more viable cells, protection from doxorubicin
Rule for the call: 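z-score of 2 or more over plate mean in both duplicates, retained only when retests and separate dsRNAs confirm the protection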

Against CG3419 (retired record) #1 the deposit lists raw ATP luminescence, replicate 1 = 44797; raw ATP luminescence, replicate 2 = 50633; inactive.
Against CG3419 (retired record) #2, the entry reads raw ATP luminescence, replicate 1 = 49303; raw ATP luminescence, replicate 2 = 48160; inactive.
CG3793 scored raw ATP luminescence, replicate 1 = 97857; raw ATP luminescence, replicate 2 = 58237; inactive.
CG3690 #1 scored raw ATP luminescence, replicate 1 = 57560; raw ATP luminescence, replicate 2 = 64590; inactive.
CG3690 #2 scored raw ATP luminescence, replicate 1 = 57850; raw ATP luminescence, replicate 2 = 53560; inactive.
Knock-down of CG5498 came out at: raw ATP luminescence, replicate 1 = 25230; raw ATP luminescence, replicate 2 = 20130; inactive.
mRpS34 scored raw ATP luminescence, replicate 1 = 49583; raw ATP luminescence, replicate 2 = 42840; inactive.
Knock-down of SRPK gave: raw ATP luminescence, replicate 1 = 70880; raw ATP luminescence, replicate 2 = 42570; inactive.
Tdg #1 scored raw ATP luminescence, replicate 1 = 2.10e5; raw ATP luminescence, replicate 2 = 2.08e5; inactive.
For Tdg #2, the values are raw ATP luminescence, replicate 1 = 58010; raw ATP luminescence, replicate 2 = 52290; inactive.
With knock-down of CG13384 the results were raw ATP luminescence, replicate 1 = 1.58e5; raw ATP luminescence, replicate 2 = 82633; inactive.
Against CG31636, the values are raw ATP luminescence, replicate 1 = 29170; raw ATP luminescence, replicate 2 = 25163; inactive.
Atg8a showed raw ATP luminescence, replicate 1 = 3.54e5; raw ATP luminescence, replicate 2 = 3.20e5; inactive.
Against Pp1alpha-96A, the values are raw ATP luminescence, replicate 1 = 62240; raw ATP luminescence, replicate 2 = 60270; inactive.

Looked up above:
Entry of CG3690 #2 in “raw ATP luminescence, replicate 2”: 53560
Tdg #1, raw ATP luminescence, replicate 1 = 2.10e5
Value for Pp1alpha-96A under “raw ATP luminescence, replicate 1”: 62240
SRPK, raw ATP luminescence, replicate 2 = 42570

The results go on:
Against rdhB the deposit lists raw ATP luminescence, replicate 1 = 43643; raw ATP luminescence, replicate 2 = 47347; inactive.
For CG13488, the entry reads raw ATP luminescence, replicate 1 = 81167; raw ATP luminescence, replicate 2 = 79383; inactive.
After knock-down of Sbp2 the results were raw ATP luminescence, replicate 1 = 30960; raw ATP luminescence, replicate 2 = 35640; inactive.
Ice2 scored raw ATP luminescence, replicate 1 = 42883; raw ATP luminescence, replicate 2 = 67770; inactive.
For spt4, the entry reads raw ATP luminescence, replicate 1 = 54240; raw ATP luminescence, replicate 2 = 43903; inactive.
wfs1 showed raw ATP luminescence, replicate 1 = 54660; raw ATP luminescence, replicate 2 = 68770; inactive.
ATPsynB scored raw ATP luminescence, replicate 1 = 49660; raw ATP luminescence, replicate 2 = 39900; inactive.
Depletion of CG43066 resulted in: raw ATP luminescence, replicate 1 = 1.85e5; raw ATP luminescence, replicate 2 = 1.87e5; inactive.
Against CG7691, the values are raw ATP luminescence, replicate 1 = 51780; raw ATP luminescence, replicate 2 = 50420; inactive.
Depletion of CG14450 gave: raw ATP luminescence, replicate 1 = 54277; raw ATP luminescence, replicate 2 = 57303; inactive.
After knock-down of Tim17b2 the results were raw ATP luminescence, replicate 1 = 75217; raw ATP luminescence, replicate 2 = 80297; inactive.
For CG13085, the entry reads raw ATP luminescence, replicate 1 = 56313; raw ATP luminescence, replicate 2 = 54010; inactive.
CG34225 showed raw ATP luminescence, replicate 1 = 1.07e5; raw ATP luminescence, replicate 2 = 1.05e5; inactive.
CG2652 showed raw ATP luminescence, replicate 1 = 2.16e5; raw ATP luminescence, replicate 2 = 2.57e5; inactive.
